Consider two molecules from patent US20030180396A1, “Method of effecting phosphorylation in eucaryotic cells using thiamine triphosphate” (INSTITUT PASTEUR, priority 1999, published 2003).

This data set is described as follows: Phosphoamino acid analysis of phosphorylated 43K rapsyn. The following applies: FIGS. 6, 7. Details: species or system Torpedo marmorata.

B1: 43K-rapsyn/ATP: 43K rapsyn phosphorylated with ^32P-ATP (protein, UniProt Q13702 2-412, looked up)
43 kDa receptor-associated …: GQDQTKQQIEKGLQLYQSNQTEKALQVWTKVLEKSSDLMGRFRVLGCLVTAHSEMGRYKEMLKFAVVQIDTARELEDADFLLESYLNLARSNEKLCEFHKTISYCKTCLGLPGTRAGAQLGGQVSLSMGNAFLGLSVFQKALESFEKALRYAHNNDDAMLECRVCCSLGSFYAQVKDYEKALFFPCKAAELVNNYGKGWSLKYRAMSQYHMAVAYRLLGRLGSAMECCEESMKIALQHGDRPLQALCLLCFADIHRSRGDLETAFPRYDSAMSIMTEIGNRLGQVQALLGVAKCWVARKALDKALDAIERAQDLAEEVGNKLSQLKLHCLSESIYRSKGLQRELRAHVVRFHECVEETELYCGLCGESIGEKNSRLQALPCSHIFHLRCLQNNGTRSCPNCRRSSMKPGFV
modifications: 32P-phosphorylated (ATP)
notes: 43K rapsyn phosphorylated with ^32P-ATP
Regarding B1, the Paa analysis entry is listed as “P-Ser”.

B2: 43K-rapsyn/TTP: 43K rapsyn phosphorylated with ^32P-TTP (protein, UniProt Q13702 2-412, looked up)
43 kDa receptor-associated …: GQDQTKQQIEKGLQLYQSNQTEKALQVWTKVLEKSSDLMGRFRVLGCLVTAHSEMGRYKEMLKFAVVQIDTARELEDADFLLESYLNLARSNEKLCEFHKTISYCKTCLGLPGTRAGAQLGGQVSLSMGNAFLGLSVFQKALESFEKALRYAHNNDDAMLECRVCCSLGSFYAQVKDYEKALFFPCKAAELVNNYGKGWSLKYRAMSQYHMAVAYRLLGRLGSAMECCEESMKIALQHGDRPLQALCLLCFADIHRSRGDLETAFPRYDSAMSIMTEIGNRLGQVQALLGVAKCWVARKALDKALDAIERAQDLAEEVGNKLSQLKLHCLSESIYRSKGLQRELRAHVVRFHECVEETELYCGLCGESIGEKNSRLQALPCSHIFHLRCLQNNGTRSCPNCRRSSMKPGFV
modifications: 32P-phosphorylated (TTP)
notes: 43K rapsyn phosphorylated with ^32P-TTP
Take B2: the Paa analysis result is “P-His”.
